Taken from: PubChem BioAssay AID504786 (Drosophila RNAi Screening Center, 2011)
The screen tested about 21,000 reagents; this is a random part of those with a known target gene and a result. 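Primary screen; positive scores mean lost reporter signal, so the sign may be inverted from the usual convention.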 Reagents against one gene are numbered here.

Screen: 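Positive regulators of HIF-driven reporter output in Drosophila cells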 (primary screen)
Cell system: Drosophila S2 cells with a stable HIF luciferase reporter
Reagent: long dsRNA against Drosophila genes, about 0.2 µg dsRNA per well of a 384-well plate
Time to read-out: three days of knock-down, then 20 h of DFO before reading
Treatment: desferrioxamine (DFO) at 100 µM, an iron chelator that mimics hypoxia, for 20 h
Measurement: 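HIF reporter luminescence in cells given 100 µM DFO for 20 h, using the mouse ldh-a hypoxia-response element, scored as per-plate z-scores; higher means greater loss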
Direction: z-score: higher = stronger loss of HIF reporter signal

The opening 3 records, ahead of the listing:
| gene knocked down | reagent | z-score, replicate 1 | z-score, replicate 2 | z-score, replicate 3 | z-score, replicate 4 |
| --- | --- | --- | --- | --- | --- |
| CG2291 | 1 | -0.3 | -0.3 | – | – |
| Ahcy | 1 | 0 | 0.3 | – | – |
| ninaD | 1 | -0.2 | 0 | – | – |

Results, from the start:
| gene knocked down | reagent | z-score, replicate 1 | z-score, replicate 2 | z-score, replicate 3 | z-score, replicate 4 |
| --- | --- | --- | --- | --- | --- |
| CG2291 | 1 | -0.3 | -0.3 | – | – |
| Ahcy | 1 | 0 | 0.3 | – | – |
| ninaD | 1 | -0.2 | 0 | – | – |
| CG3337 | 1 | -0.4 | -0.2 | – | – |
| Usp2 | 1 | 0.4 | 0 | – | – |
| Usp2 | 2 | -0.2 | -0.5 | – | – |
| Usp2 | 3 | 1 | 0.5 | – | – |
| CG7133 | 1 | -0.3 | -0.5 | – | – |
| Cpr23B | 1 | -0.1 | -0.3 | – | – |
| CG5639 | 1 | -0.1 | 0 | – | – |
| CG7872 | 1 | -0.3 | -0.6 | – | – |
| mtm | 1 | -0.4 | -0.9 | – | – |
| LManVI | 1 | -0.2 | 0.1 | – | – |
| CG33467 | 1 | -0.2 | -0.2 | – | – |
| stac | 1 | -0.3 | -0.4 | – | – |
| stac | 2 | -0.5 | 0 | – | – |
| CG6154 | 1 | 0.1 | 0.9 | – | – |
| Cpr47Ea | 1 | -0.4 | -0.6 | – | – |
| CG13016 | 1 | -0.2 | -0.2 | – | – |
| CG7653 | 1 | -0.2 | -0.1 | – | – |
| mab-21 | 1 | -0.2 | -0.6 | – | – |
| pyd3 | 1 | -0.3 | -0.5 | -0.1 | 0 |
| CG5103 | 1 | -0.3 | -0.3 | – | – |
| CG13731 | 1 | -0.4 | -0.2 | – | – |
| ChAT | 1 | 0.5 | -0.1 | – | – |
| ChAT | 2 | -1.2 | -0.4 | – | – |
| CG13064 | 1 | -0.3 | -0.3 | – | – |
| CG15912 | 1 | -0.3 | -0.5 | – | – |
| CG11125 | 1 | -0.2 | -0.4 | – | – |
| RSG7 | 1 | -0.3 | -0.4 | – | – |
| Indy | 1 | -0.4 | -0.7 | – | – |
| Aven | 1 | -0.3 | -0.1 | – | – |
| Osi3 | 1 | -0.3 | -0.4 | – | – |
| ItgaPS5 | 1 | -0.3 | -0.2 | – | – |
